Test results from patent US20250145722A1, “ANTI-GAL3 ANTIBODIES AND METHODS OF USE” (TrueBinding, Inc., priority 2020, published 2025).
No constants are given. Whether binding was seen depends on the method and setting. Some results given as binding are weak or reduced against the parent protein; the word gives no strength. Where a sequence is shown, tags or fusion partners need not be part of it.

Chains of the proteins cited; added tags and fusions are not shown. Lines headed by an entry give the natural chain unless they say otherwise; changes in a name come on top.
UniProt P17931: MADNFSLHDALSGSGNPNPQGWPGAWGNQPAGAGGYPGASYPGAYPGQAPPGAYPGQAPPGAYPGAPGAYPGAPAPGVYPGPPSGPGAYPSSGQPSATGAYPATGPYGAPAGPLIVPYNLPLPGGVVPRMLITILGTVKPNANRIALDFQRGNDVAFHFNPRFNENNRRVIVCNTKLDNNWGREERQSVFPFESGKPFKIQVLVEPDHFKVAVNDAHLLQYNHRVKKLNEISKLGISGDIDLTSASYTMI

Legend:
[1] = biological target: human Galectin-3 (Gal3), full-length recombinant (human) (UniProt P17931); assay: ELISA, Gal3 coated, receptor-Fc 3 µg/ml
[2] = biological target: human Galectin-3 (Gal3), full-length recombinant (human) (UniProt P17931); assay: ELISA: Gal3 coated at 3 µg/ml, receptor at 3 µg/ml, anti-human IgG-HRP, A450

- binding [1]: binds
- binding [2]: binds
B1: recombinant human TGF-beta RI/ALK-5 Fc chimera protein (R&D Systems, 3025-BR) (Fc fusion, UniProt P36897 24-125, looked up, not shown: a dimerising Fc or GST)
chain: AAALLPGATALQCFCHLCTKDNFTCVTDGLCFVSVTETTDKVIHNSMCIAEIDLIPRDRPFVCAPSSKTGSVTTTYCCNQDHCNKIELPTTVKSSPGLGPVE
